Source: US5104854A (priority 1991, dated 1992)
Part of at least one peptide drawing is inferred or uncertain, most often the ends. Residues, ends and D or L forms follow the SMILES beside them. No end group written: not given here.

Tests used:
[1] = test system: vesicular stomatitis virus; assay type: cell-based
[2] = test system: A/WSN strain of influenza virus; assay type: cell-based; settings: specificity tests; E2 (391-399) at 1 mg/ml in FIG. 2
Sindbis virus = settings: E2 (391-399) at 1 mg/ml in FIG. 2
[3] = test system: intracellular virus protein synthesis; assay type: cell-based, Sindbis virus; settings: peptide 1.0 mg/ml

Compound	inhibition of vesicular stomatitis virus formation [1]	inhibition of influenza virus release [2]	block of release of Sindbis virus (Sindbis virus)	inhibition of intracellular virus protein synthesis [3]	Ratio of Extracellular Virus to Intracellular Virus Proteins (Semliki Forest virus)	inhibition of vesicular stomatitis virus formation and secretion ([1]; peptide 1.0 mg/ml)
RVGIHLCIKLKHTKKRQIYTDIEMNRLGK	dose-dependent inhibition					
CC[C@H](C)[C@H](NC(=O)[C@H](CS)NC(=O)[C@@H](NC(=O)[C@H](CCCNC(=N)N)NC(=O)[C@H](CS)NC(=O)[C@H](CCC(N)=O)NC(=O)[C@H](CC(C)C)NC(=O)[C@H](CO)NC(=O)CNC(=O)[C@@H](N)CC(N)=O)[C@@H](C)CC)C(=O)O (H-NGSLQCRICI-OH)		inactive				
KARRECLTP-NH2 [E2 (391-399), K-A-R-R-E-C-L-T-P]		failed to inhibit	greater than 50%			
LTPYAL-NH2 [HEXAPEPTIDE L-T-P-Y-A-L, L-T-P-Y-A-L]		failed to inhibit	greater than 50%	no inhibition	.20	no inhibition
